Data reported in article doi:10.1101/2023.09.21.558912.
These are yes or no findings as the source states them, for the method shown. Tags and fused reporters may be left off the sequences shown.

Protein sequences, listed by entry. Tags and fused reporters are not part of them.
UniProt Q92769: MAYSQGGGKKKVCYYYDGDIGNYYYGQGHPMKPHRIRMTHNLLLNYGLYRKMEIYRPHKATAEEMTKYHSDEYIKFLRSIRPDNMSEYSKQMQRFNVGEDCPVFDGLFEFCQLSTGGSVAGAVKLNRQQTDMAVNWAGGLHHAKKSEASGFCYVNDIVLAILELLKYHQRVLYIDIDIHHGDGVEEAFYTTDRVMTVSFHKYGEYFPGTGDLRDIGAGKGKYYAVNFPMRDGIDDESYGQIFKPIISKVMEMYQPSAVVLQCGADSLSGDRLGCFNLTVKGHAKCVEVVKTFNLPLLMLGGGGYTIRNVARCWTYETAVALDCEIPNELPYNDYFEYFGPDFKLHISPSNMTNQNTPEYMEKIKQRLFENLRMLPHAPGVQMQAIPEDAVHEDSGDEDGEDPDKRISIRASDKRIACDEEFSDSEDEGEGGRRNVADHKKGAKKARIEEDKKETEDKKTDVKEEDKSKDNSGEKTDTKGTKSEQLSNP

Target: recombinant HDAC2 (UniProt Q92769)
Assay: co-IP

binding: no binding
B1: recombinant SUMO-tagged NARS2 (enzyme, UniProt Q96I59 15-477)
chain: SSAPFPKHKPSAKLSVRDALGAQNASGERIKIQGWIRSVRSQKEVLFLHVNDGSSLESLQVVADSGLDSRELNFGSSVEVQGQLIKSPSKRQNVELKAEKIKVIGNCDAKDFPIKYKERHPLEYLRQYPHFRCRTNVLGSILRIRSEATAAIHSFFKDSGFVHIHTPIITSNDSEGAGELFQLEPSGKLKVPEENFFNVPAFLTVSGQLHLEVMSGAFTQVFTFGPTFRAENSQSRRHLAEFYMIEAEISFVDSLQDLMQVIEELFKATTMMVLSKCPEDVELCHKFIAPGQKDRLEHMLKNNFLIISYTEAVEILKQASQNFTFTPEWGADLRTEHEKYLVKHCGNIPVFVINYPLTLKPFYMRDNEDGPQHTVAAVDLLVPGVGELFGGGLREERYHFLEERLARSGLTEVYQWYLDLRRFGSVPHGGFGMGFERYLQCILGVDNIKDVIPFPRFPHSCLL
